Results from patent publication US7642287B2, “Statin pharmaceutical compositions and related methods of treatment” (Transform Pharmaceuticals, Inc., priority 2004, dated 2010).
Counter-ions that a name gives are not always drawn. For at least one compound, name, drawing or mass did not settle the structure.

Experiments:
[1] = Dynamic Vapor Sorption (DVS) moisture sorption isotherm; assay type: physicochemical; conditions: DVS sorp-desorp cycle
Excerpt: Dynamic Vapor Sorption (DVS) data were also acquired on both the pravastatin calcium salt and the pravastatin sodium salt. […] This is consistent with an amorphous compound. Hysteresis is observed in the desorption cycle. […] Significant hysteresis is observed in the desorption cycle.

[2] = 26 week stability of pravastatin salts suspended in E463808 omega-3 oil (HPLC); assay type: physicochemical; conditions: suspension in E463808, 25 degrees C., vials and gelcaps, 26 weeks
Description: Several salts of pravastatin were suspended in E463808 omega-3 oil and placed in either capped glass vials or sealed gelatin capsules. […] were used at 25 degrees C. while glass vials were used at 25, 40, and 60 degrees C. The suspensions of salt in oil were measured periodically for 26 weeks. HPLC was used to measure degradation of the pravastatin salts.

## CC[C@H](C)C(=O)O[C@H]1C[C@H](O)C=C2C=C[C@H](C)[C@H](CC[C@@H](O)C[C@@H](O)CC(=O)O)[C@H]21 [pravastatin calcium salt]
[1]
  water adsorption as a function of relative humidity, mass gain: about 11%
[2]
  percentage of impurities over time vs sodium salt in a gelcap or potassium salt in a vial: significantly smaller percentage of impurities
